In patent US20240317867A1:
Results are given in words; binding and its absence hold for the method and conditions named. Some results given as binding are weak or reduced against the parent protein; the word gives no strength.

Target: T1, IGFR-like receptor 2 (endogenous protein of mouse Min6 insulinoma cells) (mouse) (UniProt Q3UZV7)
T1 sequence (looked up): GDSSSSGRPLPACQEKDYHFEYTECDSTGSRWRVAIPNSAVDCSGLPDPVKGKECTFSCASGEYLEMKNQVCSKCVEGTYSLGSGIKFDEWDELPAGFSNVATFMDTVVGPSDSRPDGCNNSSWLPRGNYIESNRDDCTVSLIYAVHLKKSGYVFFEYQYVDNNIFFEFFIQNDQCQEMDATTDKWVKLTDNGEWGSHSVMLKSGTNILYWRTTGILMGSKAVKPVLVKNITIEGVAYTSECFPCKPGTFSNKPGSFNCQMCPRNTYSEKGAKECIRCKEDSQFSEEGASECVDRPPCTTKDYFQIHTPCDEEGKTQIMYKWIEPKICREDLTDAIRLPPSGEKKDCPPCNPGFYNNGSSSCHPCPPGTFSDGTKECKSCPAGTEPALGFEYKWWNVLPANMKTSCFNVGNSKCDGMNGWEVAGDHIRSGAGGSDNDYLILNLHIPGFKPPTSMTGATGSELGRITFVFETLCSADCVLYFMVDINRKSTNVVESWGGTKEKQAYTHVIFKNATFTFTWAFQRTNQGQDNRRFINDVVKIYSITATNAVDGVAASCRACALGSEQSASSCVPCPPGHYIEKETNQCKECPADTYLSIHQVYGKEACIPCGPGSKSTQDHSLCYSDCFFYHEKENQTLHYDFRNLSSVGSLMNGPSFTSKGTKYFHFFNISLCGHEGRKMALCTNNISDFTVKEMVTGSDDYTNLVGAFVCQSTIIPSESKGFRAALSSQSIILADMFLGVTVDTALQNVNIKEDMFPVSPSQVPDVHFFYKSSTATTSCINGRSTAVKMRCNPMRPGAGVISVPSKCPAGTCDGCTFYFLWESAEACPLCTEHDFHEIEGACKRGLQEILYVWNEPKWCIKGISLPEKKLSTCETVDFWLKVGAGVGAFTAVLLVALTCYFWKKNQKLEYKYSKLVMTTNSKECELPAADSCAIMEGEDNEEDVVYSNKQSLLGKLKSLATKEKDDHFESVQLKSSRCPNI
Assay: immunoprecipitation from Min6 lysate, Western blot

binding: binds
B1: mAb28G11 (antibody against cytoplasmic domain of IGFR-I2) (antibody, V domains shown)
VH: DVQLQESGPGLVKPSQSLSLTCSVTGYSIISGYYWNWIRQFPGNKLEWMGYISYDGTIYYNPSLKNRISITRDTSKNQFFLKLNSVTTEDTATYYCAMRLGYWGQGTTLTVSS
VL: DIVMTQSPASLTVTAGEKVIMRCKSSQSLLNSGNQKNYLTWYQQKPGQPPKLLIYWASTKESGVPDRFTGSGSGTDFTLTISSVQAEDLAVYYCQNDYRYPFTFGSGTKLEIKR
